Measurements from patent US20040224981A1, “Antibacterial methods and compositions” (priority 2003, published 2004).
Some results were stated once for a whole list of compounds, not compound by compound.

Test system: S. aureus
Test: MIC against S. aureus strains and clinical isolates (broth microdilution)
Type: cell-based, Staphylococcus aureus
Conditions: all 8 vancomycin-intermediate S. aureus (VISA) isolates
Method: were tested against a collection of clinical isolates of S. aureus including strains that were multi-resistant to mupirocin and to other agents such as gentamicin and oxacillin.
The acetate and mupirocin salts of the MRS inhibitor compound 5 were tested against a collection of both low and high-level mupirocin resistant clinical isolates of S. aureus (Table 6).
The bacterial strains were tested for susceptibility to mupirocin and MRSi compound 2 using the broth microdilution method in accordance with NCCLS guideline to determine their MICs.
Briefly, the MIC and checkerboard titration assays were performed with strains in microtiter trays with cation-supplemented Mueller-Hinton broth (Difco). Inocula were prepared by suspending growth from blood agar plates in sterile saline to a density equivalent to that of a 0.5 McFarland standard and were diluted […] to produce a final inoculum of 5×10^5 CFU/ml. The trays were incubated aerobically overnight. Standard quality control strains were included with each run. Fractional inhibitory concentrations (FICs) were calculated as the MIC of drug A or B in combination/MIC of drug A or B alone, and the FIC index was obtained by adding the two FICs. FIC indices were interpreted as synergistic if the values were ≦0.5, additive or indifferent if the values were >0.5 to 4, and antagonistic if the values were >4.0.

**Q.** With “N-(4-bromo-5-(1-fluorovinyl)-3-methylthiophen-2-ylmethyl)-N′(1H-quinolin-4-one)propane-1,3-diamine Mupirocinate [MRSi Cmpd 5 mupirocinate]” as the substance, how does the MICs ranging read?
**A.** ≦0.008-0.25 μg/mL
